No constants are given. Whether binding was seen depends on the method and setting. Binding seen in cells or lysates may run through a third protein. Here binding means that the protein was enriched with, or labelled near, the bait; the list need not be complete.
Biological target: T1, SFB-USP22 (UniProt Q9UPT9)
T1 sequence: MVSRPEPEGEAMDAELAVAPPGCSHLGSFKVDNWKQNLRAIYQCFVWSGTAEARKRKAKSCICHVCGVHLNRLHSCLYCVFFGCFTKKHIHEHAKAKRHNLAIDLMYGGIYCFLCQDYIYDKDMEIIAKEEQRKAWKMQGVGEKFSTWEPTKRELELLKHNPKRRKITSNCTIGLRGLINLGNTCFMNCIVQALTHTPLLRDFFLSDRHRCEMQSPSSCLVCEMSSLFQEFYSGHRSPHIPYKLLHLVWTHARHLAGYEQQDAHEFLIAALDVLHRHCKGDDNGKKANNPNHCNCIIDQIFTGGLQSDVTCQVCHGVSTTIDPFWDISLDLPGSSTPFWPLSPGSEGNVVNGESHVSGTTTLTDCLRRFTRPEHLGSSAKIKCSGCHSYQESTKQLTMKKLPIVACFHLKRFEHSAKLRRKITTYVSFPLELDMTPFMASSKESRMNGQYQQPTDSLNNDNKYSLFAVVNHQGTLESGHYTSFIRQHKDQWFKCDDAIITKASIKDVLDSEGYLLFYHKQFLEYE
Assay: affinity purification with mass spectrometry; tandem affinity purification of SFB-USP22 from HEK293T lysate (NETN buffer): streptavidin-conjugated beads, elution with biotin, then S protein beads; bands from SDS-PAGE analysed by mass spectrometry; control vector in parallel

Sequences of proteins named here, by UniProt entry; tags and fusion partners are left off. Residues count along the entry.
UniProt P37231, residues 29-505: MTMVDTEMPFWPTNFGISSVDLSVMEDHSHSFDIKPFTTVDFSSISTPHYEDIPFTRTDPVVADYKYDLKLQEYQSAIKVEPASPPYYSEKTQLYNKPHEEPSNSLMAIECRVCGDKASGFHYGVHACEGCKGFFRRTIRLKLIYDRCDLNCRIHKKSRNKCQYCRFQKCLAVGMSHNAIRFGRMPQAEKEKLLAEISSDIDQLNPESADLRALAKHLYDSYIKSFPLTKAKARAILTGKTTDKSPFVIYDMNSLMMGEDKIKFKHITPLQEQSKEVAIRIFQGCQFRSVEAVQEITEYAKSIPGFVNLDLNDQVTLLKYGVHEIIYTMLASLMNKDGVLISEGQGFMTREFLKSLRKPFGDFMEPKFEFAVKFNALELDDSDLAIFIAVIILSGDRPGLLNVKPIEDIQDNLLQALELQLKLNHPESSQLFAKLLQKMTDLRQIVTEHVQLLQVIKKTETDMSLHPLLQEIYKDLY

- binding: binds
Substance: peroxisome proliferator-activated receptor gamma (PPARγ), endogenous (from UniProt P37231-2 1-477)
